No constants are given. Whether binding was seen depends on the method and setting. In cells and extracts the contact can be indirect. Some binding calls cover weakened binding; strength is not graded here.
Experiments:
[1] = target: myc-6x histidine tagged LRRK2 (leucine-rich repeat kinase 2), wild type (human) (UniProt Q5S007); assay: pull-down; lysates of SH-SY5Y cells overexpressing myc-6x histidine tagged LRRK2 loaded on Ni-NTA agarose overnight at 4 °C; washed with 1% Triton X-100 and 20, 30, 50 mM imidazole in PBS; eluted RAB35 detected by western blotting
[2] = target: HA-tagged human RAB35 (human) (UniProt Q15286); assay: co-IP; cell lysates incubated with 3F10 antibody against the HA tag (or control IgG) overnight at 4 °C, protein A/G agarose 2 h at 4 °C, RIPA washes; eluted LRRK2 detected by western blotting

Protein sequences, listed by entry. Tags and fused reporters are not part of them.
UniProt Q5S007: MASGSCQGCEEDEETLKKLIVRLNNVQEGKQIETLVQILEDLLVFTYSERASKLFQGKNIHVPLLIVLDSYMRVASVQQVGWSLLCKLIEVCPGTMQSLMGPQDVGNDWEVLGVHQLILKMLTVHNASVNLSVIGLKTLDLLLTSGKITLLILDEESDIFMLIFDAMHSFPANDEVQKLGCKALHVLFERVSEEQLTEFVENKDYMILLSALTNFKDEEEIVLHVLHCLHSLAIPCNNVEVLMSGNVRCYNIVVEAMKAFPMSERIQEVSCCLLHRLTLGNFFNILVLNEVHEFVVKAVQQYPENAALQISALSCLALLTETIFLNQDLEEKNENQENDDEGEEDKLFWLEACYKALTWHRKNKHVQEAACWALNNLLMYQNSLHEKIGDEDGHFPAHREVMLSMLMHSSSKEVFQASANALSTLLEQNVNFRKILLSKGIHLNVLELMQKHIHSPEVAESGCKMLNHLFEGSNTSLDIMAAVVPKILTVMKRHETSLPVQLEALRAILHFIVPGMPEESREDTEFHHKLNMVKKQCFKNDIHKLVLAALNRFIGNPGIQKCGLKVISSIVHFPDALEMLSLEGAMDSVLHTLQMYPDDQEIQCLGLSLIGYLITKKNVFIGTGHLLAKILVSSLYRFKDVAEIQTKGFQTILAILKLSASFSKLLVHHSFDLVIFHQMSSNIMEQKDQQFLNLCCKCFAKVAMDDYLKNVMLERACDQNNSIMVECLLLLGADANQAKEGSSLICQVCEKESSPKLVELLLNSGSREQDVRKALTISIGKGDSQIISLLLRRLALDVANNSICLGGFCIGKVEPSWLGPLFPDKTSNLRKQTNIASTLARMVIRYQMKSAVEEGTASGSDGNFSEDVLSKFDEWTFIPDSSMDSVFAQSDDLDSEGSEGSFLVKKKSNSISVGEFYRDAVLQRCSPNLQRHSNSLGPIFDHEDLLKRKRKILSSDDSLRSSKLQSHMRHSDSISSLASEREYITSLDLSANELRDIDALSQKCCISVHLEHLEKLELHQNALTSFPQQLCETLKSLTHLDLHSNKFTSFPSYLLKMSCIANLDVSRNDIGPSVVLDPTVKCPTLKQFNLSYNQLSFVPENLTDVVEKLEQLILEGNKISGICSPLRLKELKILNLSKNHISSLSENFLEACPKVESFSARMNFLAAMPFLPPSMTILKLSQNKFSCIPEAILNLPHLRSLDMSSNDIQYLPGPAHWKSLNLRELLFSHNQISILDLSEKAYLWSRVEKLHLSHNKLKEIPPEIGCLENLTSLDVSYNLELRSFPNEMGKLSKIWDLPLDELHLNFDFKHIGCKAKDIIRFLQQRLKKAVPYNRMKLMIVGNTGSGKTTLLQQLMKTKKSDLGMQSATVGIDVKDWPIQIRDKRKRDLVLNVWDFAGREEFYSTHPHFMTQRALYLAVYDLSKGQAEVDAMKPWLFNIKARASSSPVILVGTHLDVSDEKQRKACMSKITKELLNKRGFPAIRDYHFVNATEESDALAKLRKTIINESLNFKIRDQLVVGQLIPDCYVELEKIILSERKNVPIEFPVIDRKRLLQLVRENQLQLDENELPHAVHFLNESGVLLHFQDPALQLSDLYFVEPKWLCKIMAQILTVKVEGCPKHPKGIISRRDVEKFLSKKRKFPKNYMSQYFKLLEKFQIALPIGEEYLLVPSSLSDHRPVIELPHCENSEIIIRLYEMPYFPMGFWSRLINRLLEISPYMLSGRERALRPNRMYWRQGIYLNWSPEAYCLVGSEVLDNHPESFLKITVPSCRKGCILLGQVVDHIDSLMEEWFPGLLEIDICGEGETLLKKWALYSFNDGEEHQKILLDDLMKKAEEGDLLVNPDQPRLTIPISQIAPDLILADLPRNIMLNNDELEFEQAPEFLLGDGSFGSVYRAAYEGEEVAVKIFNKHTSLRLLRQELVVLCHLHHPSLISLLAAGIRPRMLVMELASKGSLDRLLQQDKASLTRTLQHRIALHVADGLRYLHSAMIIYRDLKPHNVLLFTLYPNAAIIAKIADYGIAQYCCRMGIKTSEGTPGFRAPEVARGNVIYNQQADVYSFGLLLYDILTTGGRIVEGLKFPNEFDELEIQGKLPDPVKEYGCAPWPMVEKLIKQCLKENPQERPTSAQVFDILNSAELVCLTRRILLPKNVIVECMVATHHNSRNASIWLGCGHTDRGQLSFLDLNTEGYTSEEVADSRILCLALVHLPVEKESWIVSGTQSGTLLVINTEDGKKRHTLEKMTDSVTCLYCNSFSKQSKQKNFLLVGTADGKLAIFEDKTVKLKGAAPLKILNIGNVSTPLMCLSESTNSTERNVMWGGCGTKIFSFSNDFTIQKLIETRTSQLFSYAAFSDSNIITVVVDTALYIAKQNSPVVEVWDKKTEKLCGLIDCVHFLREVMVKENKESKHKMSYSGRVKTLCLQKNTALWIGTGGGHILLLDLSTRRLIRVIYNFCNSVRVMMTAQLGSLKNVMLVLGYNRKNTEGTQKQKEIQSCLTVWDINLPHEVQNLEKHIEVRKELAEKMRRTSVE
UniProt Q15286: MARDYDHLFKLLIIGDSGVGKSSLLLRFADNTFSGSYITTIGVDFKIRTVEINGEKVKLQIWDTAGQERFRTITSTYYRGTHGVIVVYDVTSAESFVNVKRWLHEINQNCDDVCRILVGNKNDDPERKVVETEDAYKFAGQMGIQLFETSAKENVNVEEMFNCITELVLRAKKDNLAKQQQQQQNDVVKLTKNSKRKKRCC

binding [1] | binding [2] | Substance
binds | – | HA-tagged human RAB35 (from UniProt Q15286 1-201)
– | binds | myc-6x histidine tagged LRRK2 (leucine-rich repeat kinase 2), wild type (from UniProt Q5S007 1-2527) (enzyme)

— article PMC6110743
